# ± gives the standard deviation of the averaged measurements. The entries are a selection whose mix differs from that of the whole data set.
# Experiments:
# Experiment in all cases: NP40-soluble protein abundance relative to vehicle (solubility fold change) (ratio); higher = more soluble protein in presence of AMP-PNP
# [1] = target: T1, UniProt O14966 and related entries
# T1 sequence (whole entry): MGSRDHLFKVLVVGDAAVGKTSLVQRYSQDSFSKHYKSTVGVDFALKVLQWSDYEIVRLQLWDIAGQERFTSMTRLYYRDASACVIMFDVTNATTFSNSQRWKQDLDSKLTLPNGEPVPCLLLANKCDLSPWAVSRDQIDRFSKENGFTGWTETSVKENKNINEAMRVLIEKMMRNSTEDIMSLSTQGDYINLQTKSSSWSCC
# Method in brief: (§1)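 Across three independent experiments, values are fold changes against the detergent-processed vehicle for each replicate, based on vsn-normalised intensities. The samples were Jurkat crude lysate treated with eight concentrations (0.1 to 10 mM) for 10 min at room temperature and then 3 min at 37 °C. Lysate was solubilised with 0.8% NP40 and benzonase, ultracentrifuged, and the supernatant analysed by TMT-labelled LC-MS/MS.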
# UniProt O15091 = target: T2, UniProt O15091
# T2 sequence (whole entry): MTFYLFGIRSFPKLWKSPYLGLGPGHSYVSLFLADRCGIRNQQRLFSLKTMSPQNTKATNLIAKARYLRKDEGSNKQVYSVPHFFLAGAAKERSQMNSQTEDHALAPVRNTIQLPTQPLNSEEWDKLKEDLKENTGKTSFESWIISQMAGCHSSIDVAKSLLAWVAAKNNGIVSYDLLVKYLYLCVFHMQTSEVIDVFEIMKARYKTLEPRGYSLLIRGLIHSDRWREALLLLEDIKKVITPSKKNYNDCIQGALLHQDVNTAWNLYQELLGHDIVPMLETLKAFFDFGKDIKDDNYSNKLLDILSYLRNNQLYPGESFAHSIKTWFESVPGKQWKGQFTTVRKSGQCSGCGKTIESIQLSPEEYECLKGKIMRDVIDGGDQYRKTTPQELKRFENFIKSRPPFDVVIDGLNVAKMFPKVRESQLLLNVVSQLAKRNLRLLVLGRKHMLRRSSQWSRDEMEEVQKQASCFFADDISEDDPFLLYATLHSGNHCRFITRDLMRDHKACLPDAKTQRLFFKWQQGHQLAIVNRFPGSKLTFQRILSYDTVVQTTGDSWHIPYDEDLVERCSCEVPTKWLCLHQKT
# Method in brief: as §1
# [2] = target: T3, UniProt O15173 and related entries
# T3 sequence (whole entry): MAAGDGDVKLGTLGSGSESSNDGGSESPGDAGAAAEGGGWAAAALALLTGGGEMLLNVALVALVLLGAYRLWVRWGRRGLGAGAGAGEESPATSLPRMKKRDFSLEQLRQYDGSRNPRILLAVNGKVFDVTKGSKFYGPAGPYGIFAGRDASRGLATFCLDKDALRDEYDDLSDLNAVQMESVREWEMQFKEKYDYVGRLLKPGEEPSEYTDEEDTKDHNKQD
# Method in brief: as §1
# [3] = target: T4, UniProt O15530 and related entries
# T4 sequence (whole entry): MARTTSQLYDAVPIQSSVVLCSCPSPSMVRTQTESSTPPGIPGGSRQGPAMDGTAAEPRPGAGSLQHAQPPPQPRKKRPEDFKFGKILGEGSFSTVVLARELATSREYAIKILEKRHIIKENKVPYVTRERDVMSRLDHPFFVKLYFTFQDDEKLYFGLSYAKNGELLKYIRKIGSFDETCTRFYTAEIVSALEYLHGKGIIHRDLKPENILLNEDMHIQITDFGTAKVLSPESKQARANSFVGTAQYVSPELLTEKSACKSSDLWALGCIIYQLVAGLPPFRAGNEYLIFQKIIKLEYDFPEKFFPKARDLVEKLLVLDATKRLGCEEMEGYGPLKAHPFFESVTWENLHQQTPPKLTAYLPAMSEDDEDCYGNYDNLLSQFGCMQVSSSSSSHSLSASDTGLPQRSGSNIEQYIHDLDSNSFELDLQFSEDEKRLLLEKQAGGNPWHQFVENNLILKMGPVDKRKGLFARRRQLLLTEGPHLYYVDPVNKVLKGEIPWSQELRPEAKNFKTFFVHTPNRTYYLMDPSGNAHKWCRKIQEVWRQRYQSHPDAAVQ
# Method in brief: as §1
# [4] = target: T5, UniProt O43310 and related entries
# T5 sequence (whole entry): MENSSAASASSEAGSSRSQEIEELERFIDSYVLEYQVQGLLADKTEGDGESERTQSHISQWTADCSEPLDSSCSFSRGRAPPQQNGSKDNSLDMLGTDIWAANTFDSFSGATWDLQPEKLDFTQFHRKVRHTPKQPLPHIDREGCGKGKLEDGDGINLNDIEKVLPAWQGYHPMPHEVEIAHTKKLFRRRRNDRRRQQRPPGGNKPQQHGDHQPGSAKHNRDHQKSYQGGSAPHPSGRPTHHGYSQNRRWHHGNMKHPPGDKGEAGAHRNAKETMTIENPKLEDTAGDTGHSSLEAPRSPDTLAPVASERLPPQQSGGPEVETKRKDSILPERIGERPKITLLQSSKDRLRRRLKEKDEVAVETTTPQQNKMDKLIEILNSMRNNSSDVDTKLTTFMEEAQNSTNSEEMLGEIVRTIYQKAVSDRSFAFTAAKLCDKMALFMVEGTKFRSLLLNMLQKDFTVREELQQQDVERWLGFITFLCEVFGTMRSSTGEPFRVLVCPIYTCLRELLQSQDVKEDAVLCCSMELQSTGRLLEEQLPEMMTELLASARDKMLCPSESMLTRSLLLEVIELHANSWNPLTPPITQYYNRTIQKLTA
# Method in brief: as §1
compound,measurement,setting,value
Nc1ncnc2c1ncn2[C@@H]1O[C@H](COP(=O)(O)OP(=O)(O)NP(=O)(O)O)[C@@H](O)[C@H]1O [adenylyl imidodiphosphate],NP40-soluble protein abundance,[1]; concentration: 6mM,0.993 ± 0.019
same,NP40-soluble protein abundance,[1]; concentration: 8mM,0.996 ± 0.028
same,NP40-soluble protein abundance,[1]; concentration: 10mM,1.01 ± 0.016
same,NP40-soluble protein abundance,UniProt O15091; concentration: 1mM,0.994 ± 0.028
same,NP40-soluble protein abundance,UniProt O15091; concentration: 2mM,1.01 ± 0.03
same,NP40-soluble protein abundance,UniProt O15091; concentration: 4mM,1.03 ± 0.033
same,NP40-soluble protein abundance,UniProt O15091; concentration: 6mM,1.03 ± 0.02
same,NP40-soluble protein abundance,UniProt O15091; concentration: 8mM,1 ± 0.018
same,NP40-soluble protein abundance,UniProt O15091; concentration: 10mM,1.042 ± 0.0031
same,NP40-soluble protein abundance,[2]; concentration: 1mM,0.959 ± 0.037
same,NP40-soluble protein abundance,[2]; concentration: 2mM,1 ± 0.078
same,NP40-soluble protein abundance,[2]; concentration: 4mM,0.971 ± 0.014
same,NP40-soluble protein abundance,[2]; concentration: 6mM,1.02 ± 0.079
same,NP40-soluble protein abundance,[2]; concentration: 8mM,1.02 ± 0.033
same,NP40-soluble protein abundance,[2]; concentration: 10mM,0.993 ± 0.035
same,NP40-soluble protein abundance,[3]; concentration: 1mM,0.966 ± 0.043
same,NP40-soluble protein abundance,[3]; concentration: 2mM,0.994 ± 0.061
same,NP40-soluble protein abundance,[3]; concentration: 4mM,0.991 ± 0.086
same,NP40-soluble protein abundance,[3]; concentration: 6mM,0.998 ± 0.07
same,NP40-soluble protein abundance,[3]; concentration: 8mM,0.979 ± 0.096
same,NP40-soluble protein abundance,[3]; concentration: 10mM,1.01 ± 0.069
same,NP40-soluble protein abundance,[4]; concentration: 1mM,1.06 ± 0.045
same,NP40-soluble protein abundance,[4]; concentration: 2mM,1.07 ± 0.062
same,NP40-soluble protein abundance,[4]; concentration: 4mM,1.07 ± 0.063
same,NP40-soluble protein abundance,[4]; concentration: 6mM,1.04 ± 0.041

# Part of the list above, as tab-separated lines:
compound	measurement	setting	value
Nc1ncnc2c1ncn2[C@@H]1O[C@H](COP(=O)(O)OP(=O)(O)NP(=O)(O)O)[C@@H](O)[C@H]1O [adenylyl imidodiphosphate]	NP40-soluble protein abundance	[3]; concentration: 2mM	0.994 ± 0.061
same	NP40-soluble protein abundance	[3]; concentration: 4mM	0.991 ± 0.086
same	NP40-soluble protein abundance	[3]; concentration: 6mM	0.998 ± 0.07
same	NP40-soluble protein abundance	[3]; concentration: 8mM	0.979 ± 0.096
same	NP40-soluble protein abundance	[3]; concentration: 10mM	1.01 ± 0.069
same	NP40-soluble protein abundance	[4]; concentration: 1mM	1.06 ± 0.045
same	NP40-soluble protein abundance	[4]; concentration: 2mM	1.07 ± 0.062

# Source: the supplement of paper PMC6411743
